Laboratory results: PubChem BioAssay AID1259308 (NCATS, 2017)

Test: 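Knock-downs that increase output of a recombinant reporter protein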 (primary screen)
System: human HEK293 embryonic kidney cells stably expressing firefly luciferase (HEK-CMV-Luc2-Hygro)
Knock-down reagent: single siRNA against human genes, 0.8 pmol siRNA per well
Time to read-out: 72 h
Read-out: 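Reporter luminescence and viable-cell signal on separate replicate plates, given as percent of non-targeting control and median/MAD z-scores, plus per-cell luciferase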
Reading the numbers: total luciferase, z-score and total luciferase, % of control: higher = more reporter protein produced
Hit rule: 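Active when the median/MAD z-score for overall luciferase is greater than 3; a gene was taken forward for validation with new siRNAs if at least two of its three siRNAs passed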
Meaning of the calls: active = raised luciferase; inactive = no rise
This is a random part of about 59,000 deposited reagents. About 1,510 of all reagents (2.6%) were called active. 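Calls use total luciferase alone and ignore viability, so some active siRNAs may act by altering cell number.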 Unmarked entries are inactive. Reagents against one gene are numbered here. Not all columns of the deposit are shown.

Depletion of MAP3K15 (GeneID 389840) #1 gave: total luciferase, z-score -1.4; total luciferase, % of control 54.1.
With knock-down of MAP3K15 (GeneID 389840) #2 the results were total luciferase, z-score -0.338; total luciferase, % of control 75.2.
Knock-down of MAP3K15 (GeneID 389840) #3 gave: total luciferase, z-score -0.129; total luciferase, % of control 79.3.
With knock-down of ZSCAN29 (GeneID 146050) #1, the record shows total luciferase, z-score 1.49; total luciferase, % of control 112.
For ZSCAN29 (GeneID 146050) #2, the values are total luciferase, z-score -1.58; total luciferase, % of control 50.4.
After knock-down of ZSCAN29 (GeneID 146050) #3, the screen gave total luciferase, z-score -1.29; total luciferase, % of control 56.3.
PLSCR4 (GeneID 57088) #1 scored total luciferase, z-score -2.28; total luciferase, % of control 36.5.
With knock-down of PLSCR4 (GeneID 57088) #2, the record shows total luciferase, z-score -1.56; total luciferase, % of control 50.8.
Against PLSCR4 (GeneID 57088) #3, the values are total luciferase, z-score -0.577; total luciferase, % of control 70.4.
For NDC80 (GeneID 10403) #1, the values are total luciferase, z-score 1.66; total luciferase, % of control 115.
NDC80 (GeneID 10403) #2 scored total luciferase, z-score 0.677; total luciferase, % of control 95.3.
For NDC80 (GeneID 10403) #3, the values are total luciferase, z-score 0.696; total luciferase, % of control 95.7.
BMPR2 (GeneID 659) #1 gave total luciferase, z-score 0.115; total luciferase, % of control 84.2.
Silencing of BMPR2 (GeneID 659) #2 gave: total luciferase, z-score -0.522; total luciferase, % of control 71.5.
After knock-down of BMPR2 (GeneID 659) #3, the record shows total luciferase, z-score 1.21; total luciferase, % of control 106.
Knock-down of BLOC1S6 (GeneID 26258) #1 resulted in: total luciferase, z-score 0.607; total luciferase, % of control 94.
Knock-down of BLOC1S6 (GeneID 26258) #2 came out at: total luciferase, z-score -0.54; total luciferase, % of control 71.1.
For BLOC1S6 (GeneID 26258) #3 the deposit lists total luciferase, z-score 1.44; total luciferase, % of control 111.
After knock-down of PSMB11 (GeneID 122706) #1, the record shows total luciferase, z-score 0.35; total luciferase, % of control 88.8.
Silencing of PSMB11 (GeneID 122706) #2 gave: total luciferase, z-score -0.0243; total luciferase, % of control 81.4.
Knock-down of PSMB11 (GeneID 122706) #3 resulted in: total luciferase, z-score 0.93; total luciferase, % of control 100.
After knock-down of MYO6 (GeneID 4646) #1 the results were total luciferase, z-score -0.166; total luciferase, % of control 78.6.
After knock-down of MYO6 (GeneID 4646) #2 the results were total luciferase, z-score 0.518; total luciferase, % of control 92.2.
Depletion of MYO6 (GeneID 4646) #3 gave: total luciferase, z-score -0.0488; total luciferase, % of control 80.9.
Silencing of TTC14 (GeneID 151613) #1 resulted in: total luciferase, z-score -0.238; total luciferase, % of control 77.2.
Depletion of TTC14 (GeneID 151613) #2 gave: total luciferase, z-score -0.143; total luciferase, % of control 79.
Knock-down of TTC14 (GeneID 151613) #3 came out at: total luciferase, z-score 0.692; total luciferase, % of control 95.6.
HOXB2 (GeneID 3212) #1 showed total luciferase, z-score -0.65; total luciferase, % of control 69.
After knock-down of HOXB2 (GeneID 3212) #2, the record shows total luciferase, z-score -0.146; total luciferase, % of control 79.
Knock-down of HOXB2 (GeneID 3212) #3 gave: total luciferase, z-score -0.055; total luciferase, % of control 80.8.
NRAS (GeneID 4893) #1 gave total luciferase, z-score -0.172; total luciferase, % of control 78.5.
Against NRAS (GeneID 4893) #2, the entry reads total luciferase, z-score 1.19; total luciferase, % of control 106.
Knock-down of NRAS (GeneID 4893) #3 came out at: total luciferase, z-score 0.0365; total luciferase, % of control 82.6.

Reprinted from the listing for reference:
PLSCR4 (GeneID 57088) #2 — total luciferase, z-score: -1.56; total luciferase, % of control: 50.8
PLSCR4 (GeneID 57088) #3 — total luciferase, z-score: -0.577; total luciferase, % of control: 70.4
NDC80 (GeneID 10403) #1 — total luciferase, z-score: 1.66; total luciferase, % of control: 115
NDC80 (GeneID 10403) #2 — total luciferase, z-score: 0.677; total luciferase, % of control: 95.3
